Library screen at single concentrations

The chains behind the UniProt entries cited, without tags or fusion partners. Residues count along the entry.
UniProt Q8IDJ8, 1-583: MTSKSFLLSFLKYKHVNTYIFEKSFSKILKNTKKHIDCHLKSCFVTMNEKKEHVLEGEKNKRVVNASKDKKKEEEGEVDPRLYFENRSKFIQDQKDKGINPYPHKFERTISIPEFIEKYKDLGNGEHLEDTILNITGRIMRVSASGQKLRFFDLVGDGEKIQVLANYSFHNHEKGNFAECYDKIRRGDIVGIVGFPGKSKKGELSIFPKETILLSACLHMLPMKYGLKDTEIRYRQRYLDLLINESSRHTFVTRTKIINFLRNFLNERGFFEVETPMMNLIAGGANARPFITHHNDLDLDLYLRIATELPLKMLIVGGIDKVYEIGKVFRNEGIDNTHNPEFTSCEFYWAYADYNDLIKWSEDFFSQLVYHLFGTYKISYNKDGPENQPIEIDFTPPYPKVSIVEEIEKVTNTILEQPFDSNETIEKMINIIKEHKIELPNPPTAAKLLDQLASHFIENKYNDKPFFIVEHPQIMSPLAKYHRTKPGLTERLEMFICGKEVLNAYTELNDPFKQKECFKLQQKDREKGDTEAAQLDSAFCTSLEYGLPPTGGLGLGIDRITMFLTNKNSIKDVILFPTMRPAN
UniProt P9WFT3, whole entry: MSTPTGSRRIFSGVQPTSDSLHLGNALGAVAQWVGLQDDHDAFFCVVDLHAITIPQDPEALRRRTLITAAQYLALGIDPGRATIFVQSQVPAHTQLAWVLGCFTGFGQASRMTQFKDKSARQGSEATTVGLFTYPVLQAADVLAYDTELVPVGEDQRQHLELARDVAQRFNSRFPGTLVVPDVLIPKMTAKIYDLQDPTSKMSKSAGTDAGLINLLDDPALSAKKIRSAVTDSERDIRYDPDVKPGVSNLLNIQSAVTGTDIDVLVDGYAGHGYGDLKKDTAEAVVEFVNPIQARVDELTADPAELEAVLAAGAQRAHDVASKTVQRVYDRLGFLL

Values are the deposited “Percent Effect”, in %. The controls that fix the scale are not given in the record; negative values are as filed. This is an unselected part of the compounds tested.

A: 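Lysine-tRNA ligase, Plasmodium falciparum 3D7 (UniProt Q8IDJ8). Enzyme assay of the cytosolic lysyl-tRNA synthetase in 384-well plates, read by luminescence. Concentration: 30 µM. Higher reads as stronger inhibition, judged from the few compounds that gave an IC50. Size under these conditions: about 69,000 compounds, about 49 of them at 50% or above in at least one test.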
B: 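Tryptophan-tRNA ligase, Mycobacterium tuberculosis (UniProt P9WFT3). Enzyme assay of tryptophanyl-tRNA synthetase; the read-out is not stated. Compounds at 10 µM. Higher most likely means stronger inhibition; the record gives no direction and few retests gave an IC50. Of about 65,000 compounds tested this way, about 64 (0.098%) reached 50% or more in at least one test.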
C: 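Cell assay of Leishmania donovani living inside macrophages; the read-out is not stated. Concentration: 30 µM. Direction is inferred from retests: higher values go with stronger inhibition. Size under these conditions: about 69,000 compounds, about 1,000 of them at 50% or above in at least one test.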

For O=C(N[C@@H]1CN(c2ncc(F)cn2)[C@@H]2COC[C@@H]21)c1cscn1 the result was A: 1.012%; B: -4.545%.
For CC(C)CN1CC2(CCN(C(=O)c3nc4ncccn4n3)CC2)CC1=O the result was A: 1.989%; B: 0.4079%; C: -38.48%.
For CC(C)(O)CCc1cccc(C(=O)N[C@H](C(N)=O)c2ccccc2)c1 the result was A: 4.561%; B: -2.315%; C: -18.18%.
For CCOC(=O)c1n[nH]cc1-c1cncn1CC(C)n1nc(C)cc1C (configuration not stated) the result was A: -0.623%; B: -5.961%; C: 11.67%.
For Cc1cc(-c2nn(C)c(Cl)c2CN2CCCCC(N)C2)no1 (configuration not stated) the result was A: 9.573%; B: 0.9721%; C: 29.28%.
For Cn1ncc2c1CN(C(=O)Cc1ccccn1)CC2COCC1CC1.O=C(O)C(F)(F)F.O=C(O)C(F)(F)F (configuration not stated) the result was C: 16.87%.
For Cc1ccccc1OCCN1CCCC(c2cc(C(N)=O)[nH]n2)C1 (configuration not stated) the result was A: -0.7981%; B: -6.973%; C: 32.56%.
For Cc1ncc(CNC(=O)NCc2c(F)cccc2OC(F)F)s1 the result was A: 6.279%; B: 2.993%; C: 18.37%.
For CCOc1ccc(Cl)c(C(=O)N2CCN(CC(O)CC)CC2)n1 (configuration not stated) the result was A: -1.637%; B: -7.011%; C: 1.363%.
For COc1cccc2c1ccn2CCC(=O)N1CCCC(C(=O)O)C1 (configuration not stated) the result was A: -6.535%; B: 8.369%; C: 23.95%.
For CO[C@H]1CN(Cc2cccc(C#N)c2)[C@@H]2COC[C@H]12 the result was A: 2.943%; B: 5.142%.
For CSc1ncc(C(=O)NCc2cc3n(n2)CCCN(CC(C)C)C3)cn1 the result was A: -5.96%; B: 31.34%; C: 9.688%.
For Cc1noc(C)c1CN1CCc2ncc(CN(C)C)n2CC1 the result was A: 3.172%; B: 1.467%.
For CCn1nc(C)c(CNC(=O)c2nnc3ccc(OC)cc3n2)c1C the result was A: 3.752%; B: 2.164%; C: -1.69%.
For c1cnc(N2CCC3(CCN(CC4CCOC4)CC3)C2)nc1 (configuration not stated) the result was A: 1.66%; B: -1.256%.
For Cn1cc(-c2csc(N3CCOCC3)n2)cn1 the result was A: 0.6918%; B: -1.517%; C: -6.72%.
For NC(=O)CC1CCN(CC(O)c2ccc(Br)cc2)CC1 (configuration not stated) the result was A: -4.299%; B: -3.374%; C: 20.46%.
For Cc1cc(C)c(CNC(=O)N2CCCC2c2ccc(F)cc2)c(=O)[nH]1 (configuration not stated) the result was A: -0.01378%; B: -0.8992%; C: 19.3%.
For Cc1ccc(O)c(C(=O)N2CCCC(NC(=O)C(C)C)C2)c1 (configuration not stated) the result was A: -0.0551%; B: 4.969%; C: 3.591%.
For O=C(c1ccncn1)N1CCO[C@H]2[C@@H](OCc3cccnc3)CC[C@@H]21 the result was A: 4.319%; B: 1.154%.
For O=C(NCCCN1CCOCC1)c1ccn(-c2ccc3ccccn23)n1.O=C(O)C(F)(F)F the result was C: -7.785%.
For CC(NC(=O)NCc1ccccc1F)(C(=O)O)c1ccco1 (configuration not stated) the result was A: 0.4763%; B: -3.005%; C: 17.95%.
For CN(Cc1cc(-c2cccnc2)no1)C(=O)c1cccn1C the result was A: 0.3302%; B: 4.754%; C: -5.151%.
For [H][C@@]12CN(C(=O)c3ccnnc3)C[C@]1([H])CN(c1ncccn1)C2 the result was C: -1.133%.
For CNCC(=O)N1CCC(c2ccnc(Nc3ccc(C)cn3)n2)C1 (configuration not stated) the result was A: 0.4823%; B: 2.759%.
For O[C@H]1[C@H](NCCc2ccccn2)c2ccccc2C12CCNCC2 the result was A: -2.67%; B: -3.704%; C: -16.64%.
For CC(=O)c1ccc(C(=O)NCCCOC(C)c2ccccc2)s1 (configuration not stated) the result was A: 5.073%; B: 2.225%; C: 39.21%.
For CC(C)OCc1ncn2c1CN(Cc1ccc(F)cc1)CCC2.O=C(O)C(F)(F)F the result was C: -2.498%.
For Cc1nnc(NCC(c2ccco2)N2CCCC2)c(C#N)c1C (configuration not stated) the result was A: 15.55%; B: -1.933%; C: 15.43%.

Measurements from “University of Dundee, Small-Polar-MMV Screening Library” (2021), ChEMBL document CHEMBL3988442.